This passage reports Prob-Test and Prob-Naive results from the supplement of paper PMC10727501.

The list shows a part of the results. Repeats in this data set agree poorly, so a single value says little.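 Free-swimming zebrafish larvae were assessed for O-bend response probability to dark flashes (naive: first five; training: remaining flashes across four 60-flash blocks; test: later 60-flash block) and for OMR turning toward alternating leftward/rightward LED motion. Six treated larvae were compared against sixty 0.1% DMSO controls; hits required |SSMD|≥2.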

For one assay, the system named is Danio rerio larvae (5 dpf, TLF). Put plainly: Prob-Test (SSMD vs DMSO vehicle); higher = higher than vehicle (e.g. higher dark-flash O-bend response probability, or better optomotor performance). The note with it: 10 µM; pre-incubation: 30-90 min.
In turn, `CCOC(=O)c1ccc(OC(=O)CCCCCNC(=N)N)cc1.CS(=O)(=O)O` [Gabexate Mesylate] gave a Prob-Test of 0.00417.
Turning to `CC[C@H](/C=C/[C@@H](C)[C@@H]1CC[C@H]2[C@@H]3CC=C4C[C@@H](O)CC[C@]4(C)[C@@H]3CC[C@@]21C)C(C)C` [Stigmasterol], the Prob-Test is 0.917.
`Nc1nnc(-c2cccc(Cl)c2Cl)c(N)n1` [Lamotrigine] had a Prob-Test of 0.224.
With `Cc1ccccc1C(OCCN(C)C)c1ccccc1.O=C(O)CC(O)(CC(=O)O)C(=O)O` (configuration not stated) [Orphenadrine Citrate], the Prob-Test amounted to 0.351.
With `Cc1nn(-c2ccccc2)c(C)c1/C=N/N1CCN(Cc2ccccc2)CC1`, the Prob-Test is -1.39.
Take `CN[C@H](CC(C)C)C(=O)N[C@H]1C(=O)N[C@@H](CC(N)=O)C(=O)N[C@H]2C(=O)N[C@H]3C(=O)N[C@@H](C(=O)N[C@H](C(=O)O)c4cc(O)cc(O)c4-c4cc3ccc4O)[C@H](O)c3ccc(c(Cl)c3)Oc3cc2cc(c3O[C@H]2O[C@H](CO)[C@@H](O)[C@H](O)[C@H]2O[C@H]2C[C@@](C)(N)[C@H](O)[C@H](C)O2)Oc2ccc(cc2Cl)[C@H]1O.Cl` [Vancomycin HCl (Vancocin)]: the Prob-Test was -0.203.
`CCCCc1nc2cc(/C=C/C(=O)NO)ccc2n1CCN(CC)CC` [Pracinostat (SB939)] registered a Prob-Test of 0.585.
For `Cl.Cl.Fc1cc(-c2cccc3ncc(-c4cnn(C5CCNCC5)c4)nc23)cc(F)c1CN1CCOCC1`, the Prob-Test stood at 0.36.
Same read-out and setting: to `CC[C@@H]([C@H](C)O)n1ncn(-c2ccc(N3CCN(c4ccc(OC[C@@H]5CO[C@@](Cn6cncn6)(c6ccc(F)cc6F)C5)cc4)CC3)cc2)c1=O` [Posaconazole] belongs -0.523.

The test system is the same in another assay. Briefly: Prob-Naive (SSMD vs DMSO vehicle); higher = higher than vehicle (e.g. higher dark-flash O-bend response probability, or better optomotor performance). The note with it: 10 µM; pre-incubation: 30-90 min.
For the molecule `COc1cc(OC2CCN(C)CC2)ccc1Nc1ncc2c(n1)n(C1CCCC1)c(=O)n2C`, the Prob-Naive was found to be 0.106.
As for `CC(C)(C)N.CCCC(N[C@@H](C)C(=O)N1[C@@H](C(=O)O)C[C@@H]2CCCC[C@@H]21)C(=O)OCC` (some centres not stated) [Perindopril Erbumine (Aceon)], the Prob-Naive is -0.252.
`CCOC(=O)C1OC1C(=O)NC(CC(C)C)C(=O)NCCC(C)C` (configuration not stated) [Aloxistatin] registered a Prob-Naive of -0.141.
`NCCc1c[nH]cn1.O=P(=O)OO.O=P(=O)OO.[HH].[HH]` [Histamine Phosphate] registered a Prob-Naive of 0.0912.
For the molecule `NC(=O)c1cnccn1` [Pyrazinamide], the Prob-Naive is -0.0907.
`Cc1c(NC(=O)OC[C@@H]2COCCN2)cn2ncnc(Nc3ccc4c(cnn4Cc4cccc(F)c4)c3)c12.Cl`: the Prob-Naive turned out to be 0.00409.
Molecule `CCCCCCCCCCCCCCCCCCCCCCO` [Docosanol (Abreva)] came in with a Prob-Naive of 0.448.
For the molecule `Cc1cc(/C=C/C#N)cc(C)c1Nc1ccnc(Nc2ccc(C#N)cc2)n1` [Rilpivirine], the Prob-Naive is -0.0555.
`Cn1cnc([N+](=O)[O-])c1Sc1ncnc2nc[nH]c12` [Azathioprine] displayed a Prob-Naive of 0.454.
Take `Nc1nccs1` [Aminothiazole]: the Prob-Naive stood at 0.506.
As to `COc1ccc2[nH]c(S(=O)Cc3ncc(C)c(OC)c3C)nc2c1` (configuration not stated) [Omeprazole], the Prob-Naive was -0.224.
Molecule `Oc1cccc(-c2nc(N3CCOCC3)c3oc4ncccc4c3n2)c1` yielded a Prob-Naive of 0.255.
Take `CO[C@H]1C[C@@H]2CC[C@@H](C)[C@@](O)(O2)C(=O)C(=O)N2CCCC[C@H]2C(=O)O[C@H]([C@H](C)C[C@@H]2CC[C@@H](OCCO)[C@H](OC)C2)CC(=O)[C@H](C)/C=C(\C)[C@@H](O)[C@@H](OC)C(=O)[C@H](C)C[C@H](C)/C=C/C=C/C=C/1C` [Everolimus (RAD001)]: the Prob-Naive was -0.29.
For `COC(=O)N1CCN(Cc2cccc(NC(=O)Nc3ccc(C)nc3)c2F)CC1`, the Prob-Naive was -0.094.
The molecule `COc1cccc(N(C)C(=S)Oc2ccc3c(c2)CCCC3)n1` [Liranaftate] showed a Prob-Naive of -3.14.
On to `CN1C[C@@H]2c3ccccc3Oc3ccc(Cl)cc3[C@H]2C1.O=C(O)/C=C\C(=O)O` [Asenapine], for which the Prob-Naive worked out at 0.499.
On the same count and under the same terms, next, `COc1cccc2cc(-c3nc([C@H]4CC[C@H](C(=O)O)CC4)n4ncnc(N)c34)[nH]c12`: -0.13.
Regarding `CCN(CC)C(=O)[C@]1(c2ccccc2)C[C@@H]1CN.Cl` [Milnacipran HCl], the Prob-Naive turned out to be 0.536.
